Assay results reported in the supplement of paper PMC3741180, “A Novel High Throughput Biochemical Assay to Evaluate the HuR Protein-RNA Complex Formation” (PLoS ONE, 2013).
Some of the results follow. Repeats in this data set agree poorly, so a single value says little.

The chains behind the UniProt entries cited, without tags or fusion partners.
UniProt Q15717, whole entry: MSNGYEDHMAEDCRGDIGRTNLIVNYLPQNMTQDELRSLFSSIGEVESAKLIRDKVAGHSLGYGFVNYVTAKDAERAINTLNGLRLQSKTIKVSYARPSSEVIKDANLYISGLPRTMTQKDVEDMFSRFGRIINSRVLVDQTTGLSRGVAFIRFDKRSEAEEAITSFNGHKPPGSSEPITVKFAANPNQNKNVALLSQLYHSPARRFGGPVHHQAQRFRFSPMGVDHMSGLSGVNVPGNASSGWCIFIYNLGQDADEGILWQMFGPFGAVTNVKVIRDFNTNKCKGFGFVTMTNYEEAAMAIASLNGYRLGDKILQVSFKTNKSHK

What follows are molecules tested against HuR (ELAVL1) - TNFalpha ARE RNA complex (UniProt Q15717) (assay: AlphaScreen HuR-RNA complex signal Z-score relative to positive (Bi-TNF, DMSO) controls (Z-score (SD units of positive control)); higher = more complex signal). Details: screen stage: primary screen; compound concentration: 25 nM.

| SMILES | AlphaScreen HuR-RNA complex signal Z-score |
| --- | --- |
| Fc1ccc(C(c2ccc(F)cc2)N2CCN(C/C=C/c3ccccc3)CC2)cc1 | 0.515 |
| CN1CCc2c(c3ccccc3n2Cc2ccccc2)C1 | 2.11 |
| N=C(N)NC(=N)Nc1ccccc1 | 1.55 |
| CN[C@@H]1[C@H](O[C@H]2[C@H](O[C@H]3[C@H](O)[C@@H](O)[C@H](N=C(N)N)[C@@H](O)[C@@H]3N=C(N)N)O[C@@H](C)[C@]2(O)C=O)O[C@@H](CO)[C@H](O)[C@H]1O | -0.697 |
| C[C@H](N)CO | 0.263 |
| OCCOCCN1CCN(C2=Nc3ccccc3Sc3ccccc32)CC1 | -3.38 |
| Cc1cc(O)c(C)c(O)c1C(=O)O | 1.61 |
| COc1cccc2c1C(=O)c1c(O)c3c(c(O)c1C2=O)C[C@@](O)(C(=O)CO)C[C@@H]3O[C@H]1C[C@H](N)[C@H](O)[C@H](C)O1 | -2.34 |
| CC1(C)S[C@@H]2[C@H](NC(=O)[C@H](N)c3ccc(O)cc3)C(=O)N2[C@H]1C(=O)O | 0.412 |
| O=C(O)CCCCCCCCCCCC[C@@H]1C=CCC1 | 1.95 |
| COc1cc(OC)c2c(=O)c(O)c(-c3ccc(OC)c(OC)c3)oc2c1 | 1.45 |
| CNCc1ccccc1 | 1.27 |
| N[C@@H](Cc1cc(I)c(Oc2cc(I)c(O)c(I)c2)c(I)c1)C(=O)O | -0.112 |
| Cc1cc(=O)oc2cc(O)c(O)cc12 | 0.221 |
| COc1cc(O)c(C(C)=O)c(O)c1 | 2.16 |
| Nc1ncnc2c1ncn2[C@@H]1O[C@H](CO)[C@@H](O)[C@H]1O | 0.412 |
| Clc1ccc(CSC(Cn2ccnc2)c2ccc(Cl)cc2Cl)cc1 (stereo not given) | 1.42 |
| C[n+]1cc2c3c(ccc2c2ccc4cc5c(cc4c21)OCO5)OCO3 | 0.719 |
| COc1ccc2c(c1)OCC(Cc1ccc(O)c(OC)c1)C2=O (stereo not given) | 2.8 |
| C=C(C)CCCC(C)CCOC(C)=O (stereo not given) | 1.63 |
| CN(C)CCN(Cc1ccccc1)c1ccccn1 | -1.87 |
| C=CC1=C(C)c2cc3[nH]c(cc4nc(cc5[nH]c(cc1n2)c(C)c5CCC(=O)O)C(CCC(=O)O)=C4C)c(C)c3C=C | 1.37 |

| SMILES | AlphaScreen HuR-RNA complex signal Z-score |
| --- | --- |
| COc1ccc(-c2coc3c(O)c(OC)ccc3c2=O)cc1 | 2.49 |
| C[C@]12CC[C@@H]3c4ccc(O)cc4CC[C@H]3[C@@H]1CC[C@@H]2O | -1.29 |
| CCCN(CCC)S(=O)(=O)c1ccc(C(=O)O)cc1 | 16.7 |
| CCN(CC)C(=O)c1cccc(C)c1 | 4.43 |
| CC(=O)[C@H]1CC[C@H]2[C@@H]3CCC4=CC(=O)CC[C@]4(C)[C@H]3CC[C@]12C | 19.4 |
| CN(C)CC/C=C1/c2ccccc2Sc2ccc(Cl)cc21 | 1.31 |
| CC(=O)O[C@H]1C[C@@H](OC(C)=O)C(C)(C)[C@@H]2C[C@@H](OC(C)=O)[C@]3(C)[C@H](CC[C@@]4(C)[C@H](c5ccoc5)OC(=O)[C@H]5O[C@@]534)[C@@]12C | 1.3 |
| CN(C)CCOC(c1ccccc1)c1ccccc1 | -5.17 |
| C=CCCCCCCCCCCCc1ccco1 | 2.57 |
| CC1=C(/C=C/C(C)=C/C=C/C(C)=C/C(=O)O)C(C)(C)CCC1 | 1.62 |
| CC(=O)O[C@@H]1CC2C(C)(C)[C@H](O)C=C[C@]2(C)C2CC[C@@]3(C)[C@H](c4ccoc4)OC(=O)C4OC43[C@@]21C (stereo not given in full) | 1.8 |
| CC(=O)Oc1ccccc1C(=O)O | 0.719 |
| N=C(N)NS(=O)(=O)c1ccc(N)cc1 | 1.03 |
| COc1cc2c3cc1Oc1cc(ccc1O)C[C@@H]1c4c(cc(OC)c(O)c4Oc4ccc(cc4)C[C@@H]3N(C)CC2)CC[N+]1(C)C | -0.901 |
| Cc1ncc(CO)c(CO)c1O | 1.48 |
| COc1cc(C(=O)NCCCCCC(=O)O)cc(OC)c1OC | 2.09 |
| CC1=C(C(=O)O)N2C(=O)[C@@H](NC(=O)[C@H](N)C3=CCC=CC3)[C@H]2SC1 | -3.07 |
| N[C@@H](CCC(=O)N[C@@H](CS)C(=O)NCC(=O)O)C(=O)O | -0.00679 |
| O=C(O)COCCN1CCN(C(c2ccccc2)c2ccc(Cl)cc2)CC1 (stereo not given) | 0.636 |
| N[C@@H]1CONC1=O | -3.12 |
| C#C[C@]1(OC(C)=O)CC[C@H]2[C@@H]3CCC4=CC(=NO)CC[C@@H]4[C@H]3CC[C@@]21CC (mixture of isomers) | 0.474 |
| COc1ccc2cc([C@H](C)CO)ccc2c1 | 0.913 |

| SMILES | AlphaScreen HuR-RNA complex signal Z-score |
| --- | --- |
| CC(=O)O[C@]1(C(C)=O)CC[C@H]2[C@@H]3C=C(Cl)C4=CC(=O)[C@@H]5C[C@@H]5[C@]4(C)[C@H]3CC[C@@]21C | -3.61 |
| Clc1ccc(CO/N=C(\Cn2ccnc2)c2ccc(Cl)cc2Cl)c(Cl)c1 | 2.78 |
| COc1cc2nc(N(C)CCCNC(=O)C3CCCO3)nc(N)c2cc1OC (stereo not given) | 1.27 |
| O=C(O)/C=C/c1ccc(O)c(O)c1 | 0.46 |
| CCCCCCCCCCCCCCCC(=O)OC[C@@H](NC(=O)C(Cl)Cl)[C@H](O)c1ccc([N+](=O)[O-])cc1 | -3.48 |
| Cc1cc(C(C)(C)C)c(O)c(C(C)(C)C)c1 | -5.19 |
| COc1ccc2c(c1)OCC(Cc1ccc(OC)c(O)c1)C2=O (stereo not given) | 2.11 |
| O=C(O)c1cn(C2CC2)c2cc(N3CCNCC3)c(F)cc2c1=O | -0.0316 |
| COc1ccc(/C=C/C(=O)c2ccc(O)cc2O)cc1 | 0.149 |
| CC(C)c1c(O)c(-c2cc3c(c(C(C)C)c2O)CCC2C(C)(C)CCC[C@]32C)cc2c1CCC1C(C)(C)CCC[C@]21C (stereo not given in full) | 1.48 |
| C1CCC(C(CC2CCCCN2)C2CCCCC2)CC1 (stereo not given) | 1.66 |
| CC(=O)[C@@]1(O)CC[C@H]2[C@@H]3C[C@H](C)C4=CC(=O)C=C[C@]4(C)[C@@]3(F)[C@@H](O)C[C@@]21C | 6.4 |
| CCc1nc(N)nc(N)c1-c1ccc(Cl)cc1 | -6.26 |
| COc1ccc2c(c1)OC/C(=C/c1ccc(OC)c(OC)c1)C2=O | 0.775 |
| O=C(O)C1CC([C@@H]2CCCCN2)CN2CCCCC12 (stereo not given in full) | 0.953 |
| COc1cc(C(=O)NCc2ccc(OCCN(C)C)cc2)cc(OC)c1OC | -0.578 |
| C[C@@H]1CC[C@H]2[C@](C)(CO)[C@@H](O)CC[C@]2(C)[C@@]12CC[C@@](CO)(CCO)O2 | 2.1 |
| Clc1ccc(C(Cn2ccnc2)OCc2ccsc2Cl)c(Cl)c1 (stereo not given) | 1.02 |
| C[C@](N)(Cc1ccc(O)c(O)c1)C(=O)O | 4.87 |
| C=CC(C1=CC(=O)C(OC)=CC1=O)c1ccccc1 (stereo not given) | 2.47 |
| C[C@H]1c2cccc(O)c2C(=O)C2=C(O)[C@]3(O)C(=O)C(C(N)=O)=C(O)[C@@H](N(C)C)[C@@H]3[C@@H](O)[C@@H]21 | -3 |
